# Source: the supplement of paper PMC6411743
# Amino acid sequences for entries named in this document (tags omitted). A change or cut given only in a name is not applied to a line headed by its entry.
# UniProt P46736, whole entry: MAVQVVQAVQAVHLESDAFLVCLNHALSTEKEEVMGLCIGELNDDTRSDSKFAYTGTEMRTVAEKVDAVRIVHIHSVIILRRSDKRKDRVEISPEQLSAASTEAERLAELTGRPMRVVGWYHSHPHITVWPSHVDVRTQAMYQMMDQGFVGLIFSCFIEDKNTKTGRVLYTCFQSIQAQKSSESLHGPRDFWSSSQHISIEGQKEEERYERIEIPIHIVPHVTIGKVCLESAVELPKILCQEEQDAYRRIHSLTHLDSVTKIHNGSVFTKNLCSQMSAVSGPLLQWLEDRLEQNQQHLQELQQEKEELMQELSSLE
# UniProt P49773: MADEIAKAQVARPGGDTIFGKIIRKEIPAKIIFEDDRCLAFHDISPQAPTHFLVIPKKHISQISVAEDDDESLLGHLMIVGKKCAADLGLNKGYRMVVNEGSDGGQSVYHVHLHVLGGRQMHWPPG
# UniProt P41208: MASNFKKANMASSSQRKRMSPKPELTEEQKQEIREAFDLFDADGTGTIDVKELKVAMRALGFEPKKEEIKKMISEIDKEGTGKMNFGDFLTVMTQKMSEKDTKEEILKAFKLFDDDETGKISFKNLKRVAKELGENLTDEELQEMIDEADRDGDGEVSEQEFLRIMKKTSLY
# UniProt P37837: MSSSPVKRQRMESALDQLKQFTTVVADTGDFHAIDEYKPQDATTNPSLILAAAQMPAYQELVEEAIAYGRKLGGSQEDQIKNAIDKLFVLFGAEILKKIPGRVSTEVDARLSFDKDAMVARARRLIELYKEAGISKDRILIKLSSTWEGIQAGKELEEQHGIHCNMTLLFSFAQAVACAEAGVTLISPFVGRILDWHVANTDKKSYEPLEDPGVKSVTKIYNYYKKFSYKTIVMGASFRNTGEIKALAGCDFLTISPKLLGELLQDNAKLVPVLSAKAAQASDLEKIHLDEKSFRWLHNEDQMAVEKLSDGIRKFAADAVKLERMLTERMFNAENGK
# UniProt P51531, whole entry: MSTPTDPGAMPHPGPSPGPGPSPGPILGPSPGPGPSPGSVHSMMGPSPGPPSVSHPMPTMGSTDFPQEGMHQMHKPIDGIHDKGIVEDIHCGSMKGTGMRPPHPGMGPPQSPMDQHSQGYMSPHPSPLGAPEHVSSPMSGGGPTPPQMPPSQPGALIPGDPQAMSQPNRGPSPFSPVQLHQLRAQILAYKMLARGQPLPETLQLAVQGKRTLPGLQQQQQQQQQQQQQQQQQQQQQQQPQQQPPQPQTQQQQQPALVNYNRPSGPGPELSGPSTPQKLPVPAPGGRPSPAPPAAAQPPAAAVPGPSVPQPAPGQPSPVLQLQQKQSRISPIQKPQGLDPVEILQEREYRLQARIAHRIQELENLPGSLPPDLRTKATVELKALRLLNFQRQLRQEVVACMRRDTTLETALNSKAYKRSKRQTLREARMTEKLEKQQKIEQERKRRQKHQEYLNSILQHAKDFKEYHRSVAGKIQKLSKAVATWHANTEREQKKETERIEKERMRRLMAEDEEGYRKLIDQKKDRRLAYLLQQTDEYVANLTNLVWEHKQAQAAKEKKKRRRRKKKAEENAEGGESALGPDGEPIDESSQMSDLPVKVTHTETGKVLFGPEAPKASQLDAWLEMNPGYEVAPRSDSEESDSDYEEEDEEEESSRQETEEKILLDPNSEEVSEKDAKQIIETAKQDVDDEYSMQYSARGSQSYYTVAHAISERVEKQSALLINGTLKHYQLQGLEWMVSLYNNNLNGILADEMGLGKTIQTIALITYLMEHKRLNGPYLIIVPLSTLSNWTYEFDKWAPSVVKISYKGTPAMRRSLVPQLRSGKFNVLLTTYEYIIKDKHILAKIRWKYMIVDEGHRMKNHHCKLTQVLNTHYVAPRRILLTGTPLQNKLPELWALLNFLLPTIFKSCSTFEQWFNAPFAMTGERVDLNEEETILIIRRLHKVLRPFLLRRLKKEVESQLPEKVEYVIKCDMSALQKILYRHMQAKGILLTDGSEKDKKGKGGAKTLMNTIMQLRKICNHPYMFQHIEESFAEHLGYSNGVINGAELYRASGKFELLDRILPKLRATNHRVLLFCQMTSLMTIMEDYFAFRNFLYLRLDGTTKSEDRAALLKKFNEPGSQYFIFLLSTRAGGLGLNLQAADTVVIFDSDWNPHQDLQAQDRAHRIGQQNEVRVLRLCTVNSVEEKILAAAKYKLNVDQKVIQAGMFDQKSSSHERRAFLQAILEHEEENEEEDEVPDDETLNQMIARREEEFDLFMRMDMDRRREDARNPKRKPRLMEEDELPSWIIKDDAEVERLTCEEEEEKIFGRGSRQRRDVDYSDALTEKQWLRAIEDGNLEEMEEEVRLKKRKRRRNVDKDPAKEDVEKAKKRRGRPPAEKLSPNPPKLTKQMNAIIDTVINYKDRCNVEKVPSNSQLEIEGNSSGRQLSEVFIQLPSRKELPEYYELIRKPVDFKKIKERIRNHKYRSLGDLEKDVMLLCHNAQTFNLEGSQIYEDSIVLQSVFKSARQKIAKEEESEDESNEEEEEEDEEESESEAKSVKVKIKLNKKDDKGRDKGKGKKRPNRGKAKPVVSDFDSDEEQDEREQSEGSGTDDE
# UniProt P41214: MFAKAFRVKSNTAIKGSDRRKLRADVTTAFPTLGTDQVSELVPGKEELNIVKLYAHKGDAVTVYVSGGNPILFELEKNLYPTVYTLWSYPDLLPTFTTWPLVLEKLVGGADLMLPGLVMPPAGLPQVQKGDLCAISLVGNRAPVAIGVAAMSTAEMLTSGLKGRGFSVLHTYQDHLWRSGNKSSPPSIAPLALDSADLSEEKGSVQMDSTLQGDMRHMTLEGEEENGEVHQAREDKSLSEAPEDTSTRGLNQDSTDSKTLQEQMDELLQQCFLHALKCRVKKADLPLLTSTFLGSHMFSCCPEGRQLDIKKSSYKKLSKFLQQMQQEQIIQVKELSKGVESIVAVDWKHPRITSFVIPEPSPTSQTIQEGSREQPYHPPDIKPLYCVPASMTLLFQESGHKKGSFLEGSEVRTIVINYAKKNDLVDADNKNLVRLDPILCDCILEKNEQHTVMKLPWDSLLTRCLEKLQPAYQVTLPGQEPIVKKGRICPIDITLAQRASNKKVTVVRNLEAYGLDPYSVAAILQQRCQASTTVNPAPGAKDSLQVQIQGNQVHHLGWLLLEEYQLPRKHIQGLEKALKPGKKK
# UniProt P48147: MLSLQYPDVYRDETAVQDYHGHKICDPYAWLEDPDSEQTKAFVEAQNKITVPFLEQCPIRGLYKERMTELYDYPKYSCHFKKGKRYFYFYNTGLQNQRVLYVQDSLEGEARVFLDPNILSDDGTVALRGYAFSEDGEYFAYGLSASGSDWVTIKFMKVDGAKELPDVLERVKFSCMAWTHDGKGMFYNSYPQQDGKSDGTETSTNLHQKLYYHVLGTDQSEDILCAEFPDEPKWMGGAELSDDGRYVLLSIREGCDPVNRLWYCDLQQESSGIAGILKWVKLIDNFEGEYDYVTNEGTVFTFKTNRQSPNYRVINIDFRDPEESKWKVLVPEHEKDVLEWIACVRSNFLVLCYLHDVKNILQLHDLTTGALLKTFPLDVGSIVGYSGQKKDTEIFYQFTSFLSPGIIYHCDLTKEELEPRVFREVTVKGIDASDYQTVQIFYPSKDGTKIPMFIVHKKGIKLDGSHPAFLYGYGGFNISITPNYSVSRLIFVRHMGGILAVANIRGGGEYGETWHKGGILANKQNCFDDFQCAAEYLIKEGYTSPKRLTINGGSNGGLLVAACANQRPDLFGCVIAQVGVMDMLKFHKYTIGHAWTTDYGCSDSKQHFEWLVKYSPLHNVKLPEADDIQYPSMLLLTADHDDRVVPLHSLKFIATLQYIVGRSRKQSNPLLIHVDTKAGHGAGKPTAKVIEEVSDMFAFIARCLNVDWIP
# UniProt P49590: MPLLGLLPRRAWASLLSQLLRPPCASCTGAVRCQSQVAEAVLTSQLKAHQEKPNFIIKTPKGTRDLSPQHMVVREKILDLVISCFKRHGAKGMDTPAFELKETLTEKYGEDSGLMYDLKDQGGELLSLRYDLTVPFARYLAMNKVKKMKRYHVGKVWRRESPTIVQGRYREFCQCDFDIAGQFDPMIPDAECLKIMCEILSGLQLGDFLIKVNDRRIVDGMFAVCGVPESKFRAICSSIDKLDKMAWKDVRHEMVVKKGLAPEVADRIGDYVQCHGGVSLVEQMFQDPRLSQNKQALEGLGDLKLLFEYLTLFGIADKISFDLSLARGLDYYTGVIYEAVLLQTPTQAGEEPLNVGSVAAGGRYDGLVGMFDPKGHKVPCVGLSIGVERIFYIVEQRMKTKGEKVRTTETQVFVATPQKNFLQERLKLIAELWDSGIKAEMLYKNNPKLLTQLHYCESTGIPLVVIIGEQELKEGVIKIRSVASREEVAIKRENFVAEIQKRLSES
# UniProt P52943: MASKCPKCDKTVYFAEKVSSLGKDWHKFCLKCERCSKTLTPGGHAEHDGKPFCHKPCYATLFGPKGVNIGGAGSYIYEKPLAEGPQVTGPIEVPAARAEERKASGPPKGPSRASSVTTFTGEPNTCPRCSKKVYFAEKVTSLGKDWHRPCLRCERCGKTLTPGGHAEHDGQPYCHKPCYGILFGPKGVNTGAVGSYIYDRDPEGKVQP
# UniProt P37108: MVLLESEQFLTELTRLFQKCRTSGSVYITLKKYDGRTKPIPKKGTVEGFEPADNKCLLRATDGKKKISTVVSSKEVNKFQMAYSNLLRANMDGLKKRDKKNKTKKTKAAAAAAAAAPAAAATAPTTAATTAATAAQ
# UniProt P46734: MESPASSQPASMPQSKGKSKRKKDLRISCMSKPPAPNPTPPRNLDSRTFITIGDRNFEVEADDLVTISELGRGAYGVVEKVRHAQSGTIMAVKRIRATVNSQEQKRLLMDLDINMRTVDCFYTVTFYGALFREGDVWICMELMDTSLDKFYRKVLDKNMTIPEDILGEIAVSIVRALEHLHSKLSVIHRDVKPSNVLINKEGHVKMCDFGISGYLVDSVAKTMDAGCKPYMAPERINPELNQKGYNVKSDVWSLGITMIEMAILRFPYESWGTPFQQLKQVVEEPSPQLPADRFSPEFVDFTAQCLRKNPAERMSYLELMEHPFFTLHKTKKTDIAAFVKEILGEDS
# UniProt P47813, whole entry: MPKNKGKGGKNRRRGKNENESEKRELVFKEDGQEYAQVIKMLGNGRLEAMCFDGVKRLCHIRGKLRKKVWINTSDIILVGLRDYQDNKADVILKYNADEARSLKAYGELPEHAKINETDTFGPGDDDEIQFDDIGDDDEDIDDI
# UniProt P50443: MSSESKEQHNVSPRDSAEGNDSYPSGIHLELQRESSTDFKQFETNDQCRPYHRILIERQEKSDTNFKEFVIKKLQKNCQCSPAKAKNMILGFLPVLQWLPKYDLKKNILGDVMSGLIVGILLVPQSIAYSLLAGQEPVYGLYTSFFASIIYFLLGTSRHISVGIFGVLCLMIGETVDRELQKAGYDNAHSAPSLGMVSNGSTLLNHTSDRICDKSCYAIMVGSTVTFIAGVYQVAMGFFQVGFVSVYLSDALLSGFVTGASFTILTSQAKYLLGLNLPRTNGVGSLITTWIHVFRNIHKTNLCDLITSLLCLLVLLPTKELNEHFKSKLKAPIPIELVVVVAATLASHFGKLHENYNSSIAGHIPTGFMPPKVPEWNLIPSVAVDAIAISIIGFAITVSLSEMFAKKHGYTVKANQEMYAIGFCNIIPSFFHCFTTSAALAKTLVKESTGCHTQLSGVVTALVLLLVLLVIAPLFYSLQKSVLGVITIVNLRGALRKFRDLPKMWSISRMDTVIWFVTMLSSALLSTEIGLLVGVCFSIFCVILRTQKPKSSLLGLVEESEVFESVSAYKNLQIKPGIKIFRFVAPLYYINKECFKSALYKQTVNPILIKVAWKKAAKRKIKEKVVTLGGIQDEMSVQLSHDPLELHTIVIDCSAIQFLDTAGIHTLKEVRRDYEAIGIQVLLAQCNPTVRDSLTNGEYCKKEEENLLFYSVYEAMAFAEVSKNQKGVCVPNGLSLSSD
# UniProt P43155: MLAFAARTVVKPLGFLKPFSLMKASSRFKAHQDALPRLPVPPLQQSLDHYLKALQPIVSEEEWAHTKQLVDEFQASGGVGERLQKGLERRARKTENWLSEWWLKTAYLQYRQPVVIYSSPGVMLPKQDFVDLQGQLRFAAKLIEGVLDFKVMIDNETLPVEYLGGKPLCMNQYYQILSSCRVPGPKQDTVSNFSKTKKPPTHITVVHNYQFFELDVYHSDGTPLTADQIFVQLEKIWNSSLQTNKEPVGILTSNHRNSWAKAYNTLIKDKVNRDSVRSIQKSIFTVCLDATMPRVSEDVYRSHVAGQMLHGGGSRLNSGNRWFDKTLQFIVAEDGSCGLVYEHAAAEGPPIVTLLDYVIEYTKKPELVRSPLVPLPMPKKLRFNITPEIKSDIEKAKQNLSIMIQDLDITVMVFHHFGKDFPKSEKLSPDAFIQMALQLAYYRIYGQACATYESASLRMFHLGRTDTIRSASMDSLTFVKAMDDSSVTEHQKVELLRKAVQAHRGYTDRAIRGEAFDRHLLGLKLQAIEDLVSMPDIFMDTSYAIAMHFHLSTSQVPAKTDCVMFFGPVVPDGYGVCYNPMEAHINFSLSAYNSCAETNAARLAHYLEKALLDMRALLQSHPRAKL
# ± gives the standard deviation of the averaged measurements. This is a selection; strong and weak results do not stand in their true shares. Most entries show no effect beyond the scatter of the controls.
# Compound: Nc1ncnc2c1ncn2[C@@H]1O[C@H](COP(=O)(O)OP(=O)(O)OP(=O)(O)O)[C@@H](O)[C@H]1O [adenosine triphosphate]
# Experiment: NP40-soluble protein abundance relative to vehicle (solubility fold change) (ratio); higher = more soluble protein in presence of ATP
# Details: concentration: 0.1mM
# Method in brief: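 Eight concentrations, 0.1 to 10 mM, were tested on Jurkat crude lysate for 10 min at room temperature and then 3 min at 37 °C, in three independent experiments. The lysate was solubilised with 0.8% NP40 and benzonase, ultracentrifuged, and the supernatant TMT-labelled for LC-MS/MS. Each value is the fold change against the detergent-processed vehicle in its own replicate, from vsn-normalised intensities.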
row,Target,NP40-soluble protein abundance
1,UniProt P37275-2|P37275-5,0.967 ± 0.023
2,RPL34 (UniProt P49207),0.868 ± 0.12
3,UniProt P45985,1.04 ± 0.029
4,ACADSB (UniProt P45954),1.04 ± 0.081
5,UniProt P46736-2|P46736,1.06 ± 0.036
6,UniProt P36954,0.95 ± 0.038
7,UniProt P48454 and related entries,1.02 ± 0.016
8,HSD17B4 (UniProt P51659),0.989 ± 0.044
9,RPL4 (UniProt P36578),0.953 ± 0.095
10,HTT (UniProt P42858),1.05 ± 0.025
11,HINT1 (UniProt P49773),0.968 ± 0.04
12,CETN2 (UniProt P41208),0.767 ± 0.22
13,TALDO1 (UniProt P37837),0.964 ± 0.012
14,UniProt P51531 and related entries,0.987 ± 0.095
15,HSPA9 (UniProt P38646),0.881 ± 0.07
16,UniProt P41214,1.02 ± 0.062
17,MTOR (UniProt P42345),1.04 ± 0.037
18,PREP (UniProt P48147),1.06 ± 0.098
19,UniProt P49407-2|P49407,1.02 ± 0.021

row,Target,NP40-soluble protein abundance
1,LIG4 (UniProt P49917),1.05 ± 0.079
2,UniProt P49674,1 ± 0.029
3,RFC5 (UniProt P40937),1.04 ± 0.026
4,CCT5 (UniProt P48643),1 ± 0.03
5,UniProt P49590 and related entries,1.04 ± 0.057
6,UniProt P45974 and related entries,1.04 ± 0.059
7,ADCY7 (UniProt P51828),0.874 ± 0.06
8,SLC1A4 (UniProt P43007),1.02 ± 0.054
9,CRIP2 (UniProt P52943),1.01 ± 0.021
10,UniProt P52333 and related entries,1.106 ± 0.0098
11,SRP14 (UniProt P37108),0.853 ± 0.07
12,UniProt P46734,1.08 ± 0.036
13,UniProt P45880 and related entries,0.991 ± 0.07
14,NCAPD3 (UniProt P42695),1.03 ± 0.032
15,UniProt P47813,0.911 ± 0.038
16,UniProt P52735 and related entries,0.973 ± 0.061
17,SLC26A2 (UniProt P50443),1.02 ± 0.11
18,UniProt P51812,1.11 ± 0.11
19,UniProt P43155 and related entries,1.05 ± 0.071

# Same assay, conditions: concentration: 0.5mM
row,Target,NP40-soluble protein abundance
1,UniProt P37275-2|P37275-5,0.987 ± 0.048
2,RPL34 (UniProt P49207),0.844 ± 0.12
3,UniProt P45985,1.05 ± 0.057
4,ACADSB (UniProt P45954),1.04 ± 0.045
5,UniProt P46736-2|P46736,1.06 ± 0.073
6,UniProt P36954,1.04 ± 0.024
7,UniProt P48454 and related entries,1.04 ± 0.076
8,HSD17B4 (UniProt P51659),1.01 ± 0.017
9,RPL4 (UniProt P36578),0.959 ± 0.14
10,HTT (UniProt P42858),1.01 ± 0.017
11,HINT1 (UniProt P49773),0.944 ± 0.032
12,CETN2 (UniProt P41208),0.759 ± 0.22
13,TALDO1 (UniProt P37837),0.948 ± 0.033
14,UniProt P51531 and related entries,1.04 ± 0.069
15,HSPA9 (UniProt P38646),1 ± 0.1
16,UniProt P41214,1.04 ± 0.078
17,MTOR (UniProt P42345),1.04 ± 0.033
18,PREP (UniProt P48147),1.06 ± 0.096
19,UniProt P49407-2|P49407,1.031 ± 0.005

row,Target,NP40-soluble protein abundance
1,LIG4 (UniProt P49917),1.17 ± 0.14
2,UniProt P49674,0.995 ± 0.079
3,RFC5 (UniProt P40937),1.13 ± 0.053
4,CCT5 (UniProt P48643),1.02 ± 0.065
5,UniProt P49590 and related entries,1.03 ± 0.076
6,UniProt P45974 and related entries,1.03 ± 0.06
7,ADCY7 (UniProt P51828),1 ± 0.15
8,SLC1A4 (UniProt P43007),0.996 ± 0.069
9,CRIP2 (UniProt P52943),0.963 ± 0.025
10,UniProt P52333 and related entries,1.05 ± 0.031
11,SRP14 (UniProt P37108),0.899 ± 0.14
12,UniProt P46734,1.13 ± 0.032
13,UniProt P45880 and related entries,1.02 ± 0.018
14,NCAPD3 (UniProt P42695),1.09 ± 0.012
15,UniProt P47813,0.872 ± 0.046
16,UniProt P52735 and related entries,0.976 ± 0.043
17,SLC26A2 (UniProt P50443),0.973 ± 0.11
18,UniProt P51812,1.06 ± 0.062
19,UniProt P43155 and related entries,1.06 ± 0.072
